# The other results are listed elsewhere or left out.
# B1: FliC (Clostridium difficile) (protein)
# chain: MRVNTNVSALIANNQMGRNVNGQSKSMEKLSSGVRIKRAADDAAGLAISEKMRAQIKGLDQAGRNVQDGISVVQTAEGSLEETGNILQRMRTLSLQSANEINNTEEREKIADELTQLKDEIERISSSTEFNGKKLLDGTSSTIRLQVGASYGTNVSGTSNNNNEIKIQLVNTASIMASAGITTASIGSMKAGGTTGTDAAKTMVSSLDAALKSLNSSRAKLGAQQNRLESTQNNLNNTLENVTAAESRIRDTDVASEMVNLSKMNILVQASQSMLAQANQQPQGVLQLLG
# Assays:
# Assay in all cases: glycan array binding signal (z-score within array); higher = stronger binding
# Details in all cases: glycan notation: IUPAC condensed, linker removed
# [1] = molecular target: GlcNAc(b1-4)[GlcNAc(b1-6)]GalNAc
# How it was run: (§1)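 The Consortium for Functional Glycomics database supplied 3228 glycan arrays, of which those lacking an available protein sequence were dropped. The binding signal, a within-array Z-score, was averaged across arrays of the same protein sequence and across linkers. Negative scores can be read as non-binding.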
# [2] = molecular target: GlcNAc(b1-6)Gal(b1-4)GlcNAc
# How it was run: as §1
# GlcNAc(b1-6)GalNAc = molecular target: GlcNAc(b1-6)GalNAc
# How it was run: as §1
# [3] = molecular target: GlcNAc6S(b1-3)Gal(b1-4)GlcNAc
# How it was run: as §1
# Kdn(a2-3)Gal(b1-3)GalNAc = molecular target: Kdn(a2-3)Gal(b1-3)GalNAc
# How it was run: as §1
# Kdn(a2-3)Gal(b1-3)GlcNAc = molecular target: Kdn(a2-3)Gal(b1-3)GlcNAc
# How it was run: as §1
# Kdn(a2-3)Gal(b1-4)Glc = molecular target: Kdn(a2-3)Gal(b1-4)Glc
# How it was run: as §1
# Kdn(a2-3)Gal(b1-4)GlcNAc = molecular target: Kdn(a2-3)Gal(b1-4)GlcNAc
# How it was run: as §1
# [4] = molecular target: Kdn(a2-3)Gal(b1-4)[Fuc(a1-3)]GlcNAc
# How it was run: as §1
# Kdn(a2-6)Gal(b1-4)GlcNAc = molecular target: Kdn(a2-6)Gal(b1-4)GlcNAc
# How it was run: as §1
# [5] = molecular target: Man(a1-2)Man(a1-2)Man(a1-3)Man
# How it was run: as §1
# [6] = molecular target: Man(a1-2)Man(a1-2)Man(a1-6)[Man(a1-3)]Man
# How it was run: as §1
# Man(a1-2)Man(a1-3)Man = molecular target: Man(a1-2)Man(a1-3)Man
# How it was run: as §1
# [7] = molecular target: Man(a1-2)Man(a1-3)[Man(a1-2)Man(a1-6)]Man
# How it was run: as §1
# [8] = molecular target: Man(a1-2)Man(a1-3)[Man(a1-2)Man(a1-6)]Man(a1-6)[Man(a1-2)Man(a1-2)Man(a1-3)]Man
# How it was run: as §1
# [9] = molecular target: Man(a1-2)Man(a1-3)[Man(a1-2)Man(a1-6)]Man(a1-6)[Man(a1-2)Man(a1-2)Man(a1-3)]Man(b1-4)GlcNAc(b1-4)GlcNAc
# How it was run: as §1
# [10] = molecular target: Man(a1-2)Man(a1-3)[Man(a1-6)]Man(a1-6)[Man(a1-2)Man(a1-3)]Man(b1-4)GlcNAc(b1-4)GlcNAc
# How it was run: as §1
# [11] = molecular target: Man(a1-2)Man(a1-6)[Man(a1-3)]Man(a1-6)[Man(a1-2)Man(a1-2)Man(a1-3)]Man
# How it was run: as §1
# [12] = molecular target: Man(a1-2)Man(a1-6)[Man(a1-3)]Man(a1-6)[Man(a1-2)Man(a1-2)Man(a1-3)]Man(b1-4)GlcNAc(b1-4)GlcNAc
# How it was run: as §1
# Man(a1-3)[Man(a1-6)]Man = molecular target: Man(a1-3)[Man(a1-6)]Man
# How it was run: as §1
# [13] = molecular target: Man(a1-3)[Man(a1-6)]Man(a1-6)[Man(a1-2)Man(a1-3)]Man(b1-4)GlcNAc(b1-4)GlcNAc
# How it was run: as §1
# [14] = molecular target: Man(a1-3)[Man(a1-6)]Man(a1-6)[Man(a1-3)]Man
# How it was run: as §1
# [15] = molecular target: Man(a1-3)[Man(a1-6)]Man(a1-6)[Man(a1-3)]Man(b1-4)GlcNAc(b1-4)GlcNAc
# How it was run: as §1
# [16] = molecular target: Man(a1-3)[Man(a1-6)]Man(b1-4)GlcNAc(b1-4)GlcNAc
# How it was run: as §1
# [17] = molecular target: Man(a1-3)[Man(a1-6)]Man(b1-4)GlcNAc(b1-4)[Fuc(a1-6)]GlcNAc
# How it was run: as §1
# Man(a1-6)Man = molecular target: Man(a1-6)Man
# How it was run: as §1
# Man(b1-4)GlcNAc = molecular target: Man(b1-4)GlcNAc
# How it was run: as §1
# MurNAc(b1-4)GlcNAc = molecular target: MurNAc(b1-4)GlcNAc
# How it was run: as §1
# Neu5Ac(a2-3)Gal = molecular target: Neu5Ac(a2-3)Gal
# How it was run: as §1
# [18] = molecular target: Neu5Ac(a2-3)Gal(b1-3)GalNAc
# How it was run: as §1
# [19] = molecular target: Neu5Ac(a2-3)Gal(b1-3)GalNAc(b1-3)Gal(a1-4)Gal(b1-4)Glc
# How it was run: as §1
# [20] = molecular target: Neu5Ac(a2-3)Gal(b1-3)GalNAc(b1-4)[Neu5Ac(a2-3)]Gal(b1-4)Glc
# How it was run: as §1
# [21] = molecular target: Neu5Ac(a2-3)Gal(b1-3)GalNAc(b1-4)[Neu5Ac(a2-8)Neu5Ac(a2-3)]Gal(b1-4)Glc
# How it was run: as §1
# [22] = molecular target: Neu5Ac(a2-3)Gal(b1-3)GalNAc6S
# How it was run: as §1
# [23] = molecular target: Neu5Ac(a2-3)Gal(b1-3)GlcNAc
# How it was run: as §1
# [24] = molecular target: Neu5Ac(a2-3)Gal(b1-3)GlcNAc(b1-2)Man
# How it was run: as §1
# [25] = molecular target: Neu5Ac(a2-3)Gal(b1-3)GlcNAc(b1-2)Man(a1-3)[GlcNAc(b1-4)][Neu5Ac(a2-3)Gal(b1-3)GlcNAc(b1-2)Man(a1-6)]Man(b1-4)GlcNAc(b1-4)GlcNAc
# How it was run: as §1
binder,measurement,setting,value
B1,glycan array binding signal (z-score),[1],0.524
same,glycan array binding signal (z-score),[2],0.491
same,glycan array binding signal (z-score),GlcNAc(b1-6)GalNAc,-0.08
same,glycan array binding signal (z-score),[3],0.071
same,glycan array binding signal (z-score),Kdn(a2-3)Gal(b1-3)GalNAc,0.916
same,glycan array binding signal (z-score),Kdn(a2-3)Gal(b1-3)GlcNAc,0.045
same,glycan array binding signal (z-score),Kdn(a2-3)Gal(b1-4)Glc,0.681
same,glycan array binding signal (z-score),Kdn(a2-3)Gal(b1-4)GlcNAc,-0.755
same,glycan array binding signal (z-score),[4],-0.419
same,glycan array binding signal (z-score),Kdn(a2-6)Gal(b1-4)GlcNAc,-0.178
same,glycan array binding signal (z-score),[5],-0.487
same,glycan array binding signal (z-score),[6],-0.162
same,glycan array binding signal (z-score),Man(a1-2)Man(a1-3)Man,-0.455
same,glycan array binding signal (z-score),[7],0.04
same,glycan array binding signal (z-score),[8],-0.261
same,glycan array binding signal (z-score),[9],0.156
same,glycan array binding signal (z-score),[10],0.653
same,glycan array binding signal (z-score),[11],0.153
same,glycan array binding signal (z-score),[12],-0.576
same,glycan array binding signal (z-score),Man(a1-3)[Man(a1-6)]Man,-0.471
same,glycan array binding signal (z-score),[13],3.18
same,glycan array binding signal (z-score),[14],-0.284
same,glycan array binding signal (z-score),[15],0.124
same,glycan array binding signal (z-score),[16],-0.344
same,glycan array binding signal (z-score),[17],0.353
same,glycan array binding signal (z-score),Man(a1-6)Man,0.475
same,glycan array binding signal (z-score),Man(b1-4)GlcNAc,-0.046
same,glycan array binding signal (z-score),MurNAc(b1-4)GlcNAc,0.369
same,glycan array binding signal (z-score),Neu5Ac(a2-3)Gal,-0.755
same,glycan array binding signal (z-score),[18],0.082
same,glycan array binding signal (z-score),[19],-0.338
same,glycan array binding signal (z-score),[20],0.023
same,glycan array binding signal (z-score),[21],1.72
same,glycan array binding signal (z-score),[22],-0.509
same,glycan array binding signal (z-score),[23],-0.513
same,glycan array binding signal (z-score),[24],-0.496
same,glycan array binding signal (z-score),[25],0.514

# As a working copy, part of the list above:
binder,measurement,setting,value
B1,glycan array binding signal (z-score),[19],-0.338
same,glycan array binding signal (z-score),[20],0.023
